Measured values from the supplement of paper PMC12067093, “Discovery and optimisation of a covalent ligand for TRIM25 and its application to targeted protein ubiquitination” (Chemical Science, 2025).
Some of the results follow.

Protein sequences, listed by entry. Tags and fused reporters are not part of them. Lines headed by an entry give the natural chain unless they say otherwise; changes in a name come on top.
UniProt Q5VWN6: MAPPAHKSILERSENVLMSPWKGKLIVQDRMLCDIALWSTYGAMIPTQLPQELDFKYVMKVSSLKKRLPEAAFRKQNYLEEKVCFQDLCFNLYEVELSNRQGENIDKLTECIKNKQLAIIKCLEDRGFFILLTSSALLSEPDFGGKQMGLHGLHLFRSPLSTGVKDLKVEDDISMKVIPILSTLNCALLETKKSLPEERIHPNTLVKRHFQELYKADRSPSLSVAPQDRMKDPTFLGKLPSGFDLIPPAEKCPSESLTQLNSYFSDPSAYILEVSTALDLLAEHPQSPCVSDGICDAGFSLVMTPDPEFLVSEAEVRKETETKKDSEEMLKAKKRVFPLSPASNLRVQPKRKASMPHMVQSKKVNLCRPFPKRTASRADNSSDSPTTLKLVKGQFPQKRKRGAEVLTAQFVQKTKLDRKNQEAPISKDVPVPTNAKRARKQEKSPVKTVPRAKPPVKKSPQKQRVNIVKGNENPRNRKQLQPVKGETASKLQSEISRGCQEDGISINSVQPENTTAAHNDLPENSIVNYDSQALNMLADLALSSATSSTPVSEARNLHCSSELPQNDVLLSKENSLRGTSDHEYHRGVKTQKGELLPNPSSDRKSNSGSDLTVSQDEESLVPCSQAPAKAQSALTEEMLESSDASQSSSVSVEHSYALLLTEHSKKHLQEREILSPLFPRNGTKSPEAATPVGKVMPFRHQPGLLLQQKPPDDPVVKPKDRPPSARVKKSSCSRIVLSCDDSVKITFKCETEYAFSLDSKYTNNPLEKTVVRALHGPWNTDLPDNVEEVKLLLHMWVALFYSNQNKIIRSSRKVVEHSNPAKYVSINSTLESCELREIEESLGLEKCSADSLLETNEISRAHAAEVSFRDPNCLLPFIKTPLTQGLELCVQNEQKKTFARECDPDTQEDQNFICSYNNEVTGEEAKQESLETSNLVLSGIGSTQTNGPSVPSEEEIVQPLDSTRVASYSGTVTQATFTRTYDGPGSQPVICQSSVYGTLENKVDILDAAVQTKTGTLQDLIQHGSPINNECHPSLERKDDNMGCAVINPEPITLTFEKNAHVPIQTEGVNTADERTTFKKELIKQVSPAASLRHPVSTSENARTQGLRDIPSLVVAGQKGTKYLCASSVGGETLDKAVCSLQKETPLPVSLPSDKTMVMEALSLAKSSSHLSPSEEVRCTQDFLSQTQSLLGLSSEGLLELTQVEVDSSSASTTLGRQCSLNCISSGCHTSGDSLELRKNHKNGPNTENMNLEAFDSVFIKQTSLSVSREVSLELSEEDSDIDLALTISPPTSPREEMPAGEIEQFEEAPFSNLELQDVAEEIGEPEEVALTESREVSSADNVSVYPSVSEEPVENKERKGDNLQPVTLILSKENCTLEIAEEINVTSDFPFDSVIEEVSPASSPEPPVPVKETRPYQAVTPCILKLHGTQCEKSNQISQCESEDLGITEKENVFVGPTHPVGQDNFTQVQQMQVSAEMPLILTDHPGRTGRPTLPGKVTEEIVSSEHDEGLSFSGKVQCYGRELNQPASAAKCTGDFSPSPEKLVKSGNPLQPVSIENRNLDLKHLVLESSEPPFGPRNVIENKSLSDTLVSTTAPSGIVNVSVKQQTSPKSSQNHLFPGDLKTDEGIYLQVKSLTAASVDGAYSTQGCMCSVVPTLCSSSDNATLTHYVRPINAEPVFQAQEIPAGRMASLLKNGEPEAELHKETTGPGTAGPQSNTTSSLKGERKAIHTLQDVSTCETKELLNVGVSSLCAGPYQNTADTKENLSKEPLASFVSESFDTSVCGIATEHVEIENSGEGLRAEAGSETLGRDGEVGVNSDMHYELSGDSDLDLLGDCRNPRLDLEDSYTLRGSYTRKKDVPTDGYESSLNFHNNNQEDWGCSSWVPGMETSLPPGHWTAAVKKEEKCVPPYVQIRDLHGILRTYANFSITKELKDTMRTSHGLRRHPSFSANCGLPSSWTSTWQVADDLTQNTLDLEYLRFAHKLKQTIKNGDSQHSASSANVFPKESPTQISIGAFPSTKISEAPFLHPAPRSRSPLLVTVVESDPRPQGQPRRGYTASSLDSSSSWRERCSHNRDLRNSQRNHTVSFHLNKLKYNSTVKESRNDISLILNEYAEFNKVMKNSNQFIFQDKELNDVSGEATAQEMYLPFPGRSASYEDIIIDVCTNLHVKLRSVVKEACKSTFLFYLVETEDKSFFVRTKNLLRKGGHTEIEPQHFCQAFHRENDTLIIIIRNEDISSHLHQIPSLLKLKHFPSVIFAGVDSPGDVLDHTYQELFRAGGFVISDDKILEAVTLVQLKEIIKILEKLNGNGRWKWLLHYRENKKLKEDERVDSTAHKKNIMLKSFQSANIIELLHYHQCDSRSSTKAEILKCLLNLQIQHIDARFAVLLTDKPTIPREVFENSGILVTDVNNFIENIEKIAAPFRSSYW
UniProt Q658Y4: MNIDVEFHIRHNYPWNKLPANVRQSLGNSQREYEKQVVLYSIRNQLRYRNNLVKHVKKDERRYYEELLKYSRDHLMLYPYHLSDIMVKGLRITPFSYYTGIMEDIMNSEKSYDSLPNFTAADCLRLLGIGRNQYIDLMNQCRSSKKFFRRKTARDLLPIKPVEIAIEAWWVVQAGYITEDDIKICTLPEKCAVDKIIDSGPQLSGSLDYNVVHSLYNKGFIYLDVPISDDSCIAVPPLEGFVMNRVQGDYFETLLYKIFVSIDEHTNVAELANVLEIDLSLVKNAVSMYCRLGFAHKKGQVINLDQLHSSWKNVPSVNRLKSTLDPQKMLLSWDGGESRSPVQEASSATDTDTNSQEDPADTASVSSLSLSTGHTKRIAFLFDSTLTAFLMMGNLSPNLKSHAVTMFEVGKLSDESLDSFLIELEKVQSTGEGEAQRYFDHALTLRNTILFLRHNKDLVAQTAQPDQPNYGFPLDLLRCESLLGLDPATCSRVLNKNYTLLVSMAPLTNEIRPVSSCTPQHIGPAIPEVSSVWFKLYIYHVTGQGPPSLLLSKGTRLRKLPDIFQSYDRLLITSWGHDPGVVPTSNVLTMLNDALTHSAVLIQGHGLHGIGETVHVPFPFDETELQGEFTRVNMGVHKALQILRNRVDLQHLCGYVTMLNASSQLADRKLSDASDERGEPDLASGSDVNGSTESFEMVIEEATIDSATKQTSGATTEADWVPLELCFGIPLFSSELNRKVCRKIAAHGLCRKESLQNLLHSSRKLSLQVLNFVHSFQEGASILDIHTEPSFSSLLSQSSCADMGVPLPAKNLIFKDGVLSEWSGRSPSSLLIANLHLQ
UniProt P22830: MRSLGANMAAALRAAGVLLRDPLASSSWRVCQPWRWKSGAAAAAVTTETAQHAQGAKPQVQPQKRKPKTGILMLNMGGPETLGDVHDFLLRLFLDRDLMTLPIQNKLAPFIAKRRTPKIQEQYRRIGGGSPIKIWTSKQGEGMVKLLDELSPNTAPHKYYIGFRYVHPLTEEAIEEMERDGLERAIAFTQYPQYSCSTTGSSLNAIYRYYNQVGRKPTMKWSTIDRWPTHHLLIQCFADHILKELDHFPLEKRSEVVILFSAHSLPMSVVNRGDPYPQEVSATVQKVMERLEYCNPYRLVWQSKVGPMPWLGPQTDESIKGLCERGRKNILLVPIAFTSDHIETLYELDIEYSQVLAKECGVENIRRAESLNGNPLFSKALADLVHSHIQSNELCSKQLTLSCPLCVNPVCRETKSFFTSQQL
UniProt Q8N0U4: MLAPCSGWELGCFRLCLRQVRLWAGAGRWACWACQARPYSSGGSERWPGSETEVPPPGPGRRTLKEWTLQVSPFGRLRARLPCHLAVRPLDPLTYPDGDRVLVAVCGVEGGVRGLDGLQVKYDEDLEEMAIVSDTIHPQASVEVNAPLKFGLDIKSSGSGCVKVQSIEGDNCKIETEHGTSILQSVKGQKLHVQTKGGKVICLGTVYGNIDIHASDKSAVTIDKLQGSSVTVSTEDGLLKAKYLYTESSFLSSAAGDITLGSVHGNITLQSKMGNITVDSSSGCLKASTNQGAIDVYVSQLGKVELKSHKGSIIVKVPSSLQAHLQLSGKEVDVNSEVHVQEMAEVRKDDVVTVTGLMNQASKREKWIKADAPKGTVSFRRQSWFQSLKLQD
UniProt Q9UK61: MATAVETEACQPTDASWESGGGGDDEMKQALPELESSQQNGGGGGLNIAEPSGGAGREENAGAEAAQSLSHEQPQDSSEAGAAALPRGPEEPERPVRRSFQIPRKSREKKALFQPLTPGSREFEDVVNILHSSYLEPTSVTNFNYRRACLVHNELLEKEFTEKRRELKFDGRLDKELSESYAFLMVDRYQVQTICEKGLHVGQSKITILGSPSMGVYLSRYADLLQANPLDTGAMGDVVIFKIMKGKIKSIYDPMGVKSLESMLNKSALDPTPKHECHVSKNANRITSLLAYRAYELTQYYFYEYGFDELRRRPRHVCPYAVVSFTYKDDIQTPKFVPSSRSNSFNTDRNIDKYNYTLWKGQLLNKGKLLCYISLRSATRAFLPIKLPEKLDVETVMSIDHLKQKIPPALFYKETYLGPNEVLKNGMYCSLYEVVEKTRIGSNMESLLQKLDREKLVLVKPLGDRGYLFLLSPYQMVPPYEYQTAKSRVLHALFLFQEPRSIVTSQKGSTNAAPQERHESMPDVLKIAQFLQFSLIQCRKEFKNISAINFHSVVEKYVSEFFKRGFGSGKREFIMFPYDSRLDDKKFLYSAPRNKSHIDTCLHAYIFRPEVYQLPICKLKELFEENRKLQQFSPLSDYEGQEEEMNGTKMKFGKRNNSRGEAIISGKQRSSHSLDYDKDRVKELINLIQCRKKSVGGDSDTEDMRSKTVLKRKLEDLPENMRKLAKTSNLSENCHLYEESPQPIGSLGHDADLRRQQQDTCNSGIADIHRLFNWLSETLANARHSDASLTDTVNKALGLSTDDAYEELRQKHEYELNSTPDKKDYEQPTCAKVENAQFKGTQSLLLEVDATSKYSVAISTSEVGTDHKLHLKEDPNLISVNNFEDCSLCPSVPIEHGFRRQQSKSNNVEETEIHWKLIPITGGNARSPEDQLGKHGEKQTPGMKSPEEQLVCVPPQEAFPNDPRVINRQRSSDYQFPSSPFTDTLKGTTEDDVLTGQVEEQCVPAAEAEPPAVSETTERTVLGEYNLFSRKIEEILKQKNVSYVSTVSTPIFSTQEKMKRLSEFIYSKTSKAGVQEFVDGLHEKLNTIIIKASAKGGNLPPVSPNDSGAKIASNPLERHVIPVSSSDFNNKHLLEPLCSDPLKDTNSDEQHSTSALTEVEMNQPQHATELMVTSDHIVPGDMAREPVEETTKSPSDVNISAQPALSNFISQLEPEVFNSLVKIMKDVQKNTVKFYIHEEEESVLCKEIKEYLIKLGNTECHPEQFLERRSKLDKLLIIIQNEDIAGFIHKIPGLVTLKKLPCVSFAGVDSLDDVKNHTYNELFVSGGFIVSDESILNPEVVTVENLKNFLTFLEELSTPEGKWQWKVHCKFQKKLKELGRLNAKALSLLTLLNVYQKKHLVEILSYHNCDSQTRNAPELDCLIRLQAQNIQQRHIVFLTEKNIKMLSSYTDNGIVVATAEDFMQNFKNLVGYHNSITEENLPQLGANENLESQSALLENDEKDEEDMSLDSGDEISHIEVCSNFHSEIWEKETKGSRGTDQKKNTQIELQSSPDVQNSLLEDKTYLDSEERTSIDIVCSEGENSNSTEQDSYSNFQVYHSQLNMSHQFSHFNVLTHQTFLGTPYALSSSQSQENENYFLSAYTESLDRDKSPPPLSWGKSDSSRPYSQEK
UniProt P02679: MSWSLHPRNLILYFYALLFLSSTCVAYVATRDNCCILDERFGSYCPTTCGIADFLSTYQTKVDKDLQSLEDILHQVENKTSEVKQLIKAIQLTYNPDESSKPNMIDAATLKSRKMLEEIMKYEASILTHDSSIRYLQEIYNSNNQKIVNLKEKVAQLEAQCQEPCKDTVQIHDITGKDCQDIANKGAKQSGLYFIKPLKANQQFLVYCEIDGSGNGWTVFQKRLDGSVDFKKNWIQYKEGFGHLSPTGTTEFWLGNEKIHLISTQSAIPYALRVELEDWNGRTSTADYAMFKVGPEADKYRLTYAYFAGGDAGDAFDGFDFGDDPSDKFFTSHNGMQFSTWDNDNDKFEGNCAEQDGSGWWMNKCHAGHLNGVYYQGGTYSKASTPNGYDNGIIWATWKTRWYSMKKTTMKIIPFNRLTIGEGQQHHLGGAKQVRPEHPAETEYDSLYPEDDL
UniProt P55899: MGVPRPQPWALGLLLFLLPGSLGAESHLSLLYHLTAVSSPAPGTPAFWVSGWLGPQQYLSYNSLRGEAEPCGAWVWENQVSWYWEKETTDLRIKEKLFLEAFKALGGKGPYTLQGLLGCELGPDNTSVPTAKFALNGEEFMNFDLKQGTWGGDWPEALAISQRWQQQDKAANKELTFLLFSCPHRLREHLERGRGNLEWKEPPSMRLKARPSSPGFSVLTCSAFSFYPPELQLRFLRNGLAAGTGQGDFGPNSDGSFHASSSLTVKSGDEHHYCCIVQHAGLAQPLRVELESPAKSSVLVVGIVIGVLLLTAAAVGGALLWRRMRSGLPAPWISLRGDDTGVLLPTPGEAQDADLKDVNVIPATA

Compound: Cc1cc(ccc1-c1ccccc1)C(=O)N1CCCN(CC1)C(=O)CCl [compound 10]
Assay: probe-labelled cysteine peptide fold change vs DMSO (competition) (log2 fold change); higher = less target engagement (more negative = stronger competition)
Details: THP-1, incubation time: 4 h
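Note: competitive profiling in live THP-1 cells: cysteine peptides tagged with an iodoacetamide desthiobiotin (IA-DTB) probe, intensity after compound treatment relative to DMSO-treated cells.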

Row | Target | probe-labelled cysteine peptide fold change (10 µM) | probe-labelled cysteine peptide fold change (50 µM)
1 | FBXO45_P0C2W1_98_TDILCNLPSYK (UniProt P0C2W1) | 0.0904 | 0.36
2 | FAM98C_Q17RN3_340_REDGGPQCWGR (UniProt Q17RN3) | -0.342 | -1.05
3 | FBXW11_Q9UKB1_100_MCHYQHGHINSYLK (UniProt Q9UKB1) | 0.234 | -0.129
4 | FAM208B_Q5VWN6_186_VIPILSTLNCALLETK (UniProt Q5VWN6) | 0.111 | -0.183
5 | FAM91A1_Q658Y4_653_NRVDLQHLCGYVTMLNASSQLADR (UniProt Q658Y4) | -0.182 | -0.115
6 | FCHSD1_Q86WN1_471_ALPCPAHVVFR (UniProt Q86WN1) | -0.0495 | 0.0779
7 | FAM208B_Q5VWN6_847_CSADSLLETNEISR (UniProt Q5VWN6) | -0.188 | -0.119
8 | FANCA_O15360_1120_NFCSHGGALTQDITAHFFR (UniProt O15360) | 0.00134 | -0.0214
9 | FAM76B_Q5HYJ3_73+76_PCQYCNIIAAFIGTK (UniProt Q5HYJ3) | -0.0317 | -0.0972
10 | FGD2_Q7Z6J4_548_GSSATPDQSLMCSFLQLIGDK (UniProt Q7Z6J4) | 0.091 | 0.29
11 | FAM91A1_Q658Y4_479_CESLLGLDPATCSR (UniProt Q658Y4) | 0.0283 | -0.01
12 | FARSB_Q9NSD9_255_NIFIECTGTDFTK (UniProt Q9NSD9) | 0.0691 | 0.25
13 | FCHO2_Q0JRZ9_86_LANCHLDLVR (UniProt Q0JRZ9) | 0.269 | 0.387
14 | FBXL18_Q96ME1_383_KAEDDIDSSILETLVASCCNLR (UniProt Q96ME1) | -0.142 | -0.261
15 | FECH_P22830_403_QLTLSCPLCVNPVCR (UniProt P22830) | 0.0908 | -0.0505
16 | FAR1_Q8WVX9_305_NIMVYNCTTGSTNPFHWGEVEYHVISTFK (UniProt Q8WVX9) | 0.349 | 0.677
17 | FANCG_O15287_417_AQDALTLCEELLSR (UniProt O15287) | 0.0123 | 0.0425
18 | FASTKD1_Q53R41_716_MLAEVLGGINCVK (UniProt Q53R41) | 0.0359 | -0.174
19 | FGR_P09769_415_LIKDDEYNPCQGSK (UniProt P09769) | -0.148 | -0.205
20 | FBXO7_Q9Y3I1_286_LQLLPESFICK (UniProt Q9Y3I1) | 0.226 | 0.218
21 | FASN_P49327_1118+1127_FCFTPHTEEGCLSER (UniProt P49327) | -0.166 | -0.101
22 | FAM98B_Q52LJ0_93_EMACPYSVLISGDIK (UniProt Q52LJ0) | 0.308 | 0.182

Row | Target | probe-labelled cysteine peptide fold change (10 µM) | probe-labelled cysteine peptide fold change (50 µM)
23 | FBRS_Q9HAH7_87_WCAMHVR (UniProt Q9HAH7) | -0.406 | 0.215
24 | FAM185A_Q8N0U4_161_SSGSGCVK (UniProt Q8N0U4) | 0.0196 | 0.049
25 | FCHSD2_O94868_33_HQAECDLLEDMR (UniProt O94868) | -0.181 | -0.173
26 | FBN2_P35556_1162_NCMDIDECERNPLLCR (UniProt P35556) | 0.209 | 0.235
27 | FEM1A_Q9BSK4_190_GNTALHDCAESGSLEILQLLLGCK (UniProt Q9BSK4) | -0.0407 | -0.717
28 | FAM208A_Q9UK61_1421_NAPELDCLIR (UniProt Q9UK61) | -0.155 | 0.159
29 | FGG_P02679_35_DNCCILDER (UniProt P02679) | -0.126 | -0.0155
30 | FASN_P49327_634+642_CPPGVVPACHNSK (UniProt P49327) | -0.0913 | -0.461
31 | FGD3_Q5JSP0_655_TIPLPSCK (UniProt Q5JSP0) | 0.0387 | -0.0485
32 | FASN_P49327_135_DPETLVGYSMVGCQR (UniProt P49327) | -0.0348 | 0.0666
33 | FBN2_P35556_1012_WDEDECIHPVPGK (UniProt P35556) | 0.246 | 0.328
34 | FER_P16591_690_NCLVGENNVLK (UniProt P16591) | 0.101 | -0.0766
35 | FEN1_P39748_182_VYAAATEDMDCLTFGSPVLMR (UniProt P39748) | -0.21 | 0.082
36 | FCGRT_P55899_221_ARPSSPGFSVLTCSAFSFYPPELQLR (UniProt P55899) | -0.0251 | -0.13
37 | FAM208A_Q9UK61_617_SHIDTCLHAYIFRPEVYQLPICK (UniProt Q9UK61) | -0.271 | -0.348
38 | FECH_P22830_196_AIAFTQYPQYSCSTTGSSLNAIYR (UniProt P22830) | -0.006 | 0.266
39 | FAM241A_Q8N8J7_2_CSAGELLR (UniProt Q8N8J7) | -0.174 | -0.0321
40 | FAM98A_Q8NCA5_126_MLCVNAPPK (UniProt Q8NCA5) | -0.123 | -0.0384
41 | FASN_P49327_1564_HAQPTCPGAQLCTVYYASLNFR (UniProt P49327) | -0.0736 | -0.205
42 | FASN_P49327_1403_SFYGSTLFLCR (UniProt P49327) | 0.124 | 0.0134
43 | FAM160B1_Q5W0V3_507_NYTEYKPLCPEDK (UniProt Q5W0V3) | -0.204 | -0.0849
44 | FBL_P22087_268_ANCIDSTASAEAVFASEVKK (UniProt P22087) | 0.0013 | 0.046

Row | Target | probe-labelled cysteine peptide fold change (10 µM) | probe-labelled cysteine peptide fold change (50 µM)
45 | FCF1_Q9Y324_93_LDLVQSMMDCLYAK (UniProt Q9Y324) | -0.0733 | -0.0698
46 | FBXL20_Q96IG2_364_HLGNGACAHDQLEVIELDNCPLITDASLEHLK (UniProt Q96IG2) | 0.00428 | -0.051
47 | FASN_P49327_2202_ADEASELACPTPK (UniProt P49327) | -0.288 | -0.114
48 | FANCL_Q9NW38_251_HPTMLPECFFLGADHVVK (UniProt Q9NW38) | -0.0134 | 0.128
49 | FERMT3_Q86UX7_194_GMPAHFSDSAQTEACYHMLSRPQPPPDPLLLQR (UniProt Q86UX7) | -0.329 | -0.519
50 | FBXO30_Q8TB52_725_EEAIPLPCMCVTR (UniProt Q8TB52) | 0.235 | -0.68
51 | FASN_P49327_2292_AAPLDSIHSLAAYYIDCIR (UniProt P49327) | 0.162 | 0.115
52 | FBXL6_Q8N531_407_ITPAGLQDLPCR (UniProt Q8N531) | -0.174 | -0.377
53 | FBXL20_Q96IG2_351+364_HLGNGACAHDQLEVIELDNCPLITDASLEHLK (UniProt Q96IG2) | 0.273 | -0.33
54 | FANCD2_Q9BXW9_729_LVSPLCLAPYFR (UniProt Q9BXW9) | -0.135 | -0.421
55 | FAM206A_Q9NX38_46_ICVITLAESHPVLQSGK (UniProt Q9NX38) | 0.187 | 0.294
56 | FAM193A_P78312_106_LGTTTHDTCSEDTYSTLLQR (UniProt P78312) | 0.0842 | -0.157
57 | FES_P07332_8_GFSSELCSPQGHGVLQQMQEAELR (UniProt P07332) | -0.0348 | 0.0198
58 | FCHSD2_O94868_354_VLNDLECHGAAVSEQSR (UniProt O94868) | 0.0298 | -0.117
59 | FDPS_P14324_333_CSWLVVQCLQR (UniProt P14324) | 0.0389 | -0.254
60 | FAM185A_Q8N0U4_284_MGNITVDSSSGCLK (UniProt Q8N0U4) | -0.292 | -0.685
61 | FBXO22_Q8NEZ5_7_MEPVGCCGECR (UniProt Q8NEZ5) | -0.235 | 1.31
62 | FERMT3_Q86UX7_235_CLMQQGIK (UniProt Q86UX7) | -0.0735 | -0.0882
63 | FBXL12_Q9NXK8_134_TLELHSCEISMAWLHK (UniProt Q9NXK8) | 0.0753 | -0.0713
64 | FAM98A_Q8NCA5_126_MLCVNAPPKK (UniProt Q8NCA5) | -0.128 | -0.0723
65 | FHL1_Q13642-1_276_FVFHQEQVYCPDCAK (UniProt Q13642) | 0.0179 | -0.0229
66 | FASN_P49327_1828_CTVFHGAQVEDAFR (UniProt P49327) | 0.0268 | -0.0208

Fetched one by one from the entries so far (3):
Row | Target | probe-labelled cysteine peptide fold change (10 µM) | probe-labelled cysteine peptide fold change (50 µM)
54 | FANCD2_Q9BXW9_729_LVSPLCLAPYFR (UniProt Q9BXW9) | -0.135 | -0.421
36 | FCGRT_P55899_221_ARPSSPGFSVLTCSAFSFYPPELQLR (UniProt P55899) | -0.0251 | -0.13
29 | FGG_P02679_35_DNCCILDER (UniProt P02679) | -0.126 | -0.0155
